Results on one substance are retold here after US20110064746A1 (published 2011).

Amino acid sequences for entries named in this document (tags omitted). Residues count along the entry.
UniProt P63158: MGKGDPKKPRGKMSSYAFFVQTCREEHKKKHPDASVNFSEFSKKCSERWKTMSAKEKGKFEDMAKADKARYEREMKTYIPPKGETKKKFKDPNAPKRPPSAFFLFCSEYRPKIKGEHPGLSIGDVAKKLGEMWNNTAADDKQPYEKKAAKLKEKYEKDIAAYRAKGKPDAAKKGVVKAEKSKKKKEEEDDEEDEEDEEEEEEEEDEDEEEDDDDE
UniProt P24807, residues 27-53: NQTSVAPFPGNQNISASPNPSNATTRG

These are yes or no findings as the source states them, for the method shown. Binding seen in cells or lysates may run through a third protein. Here binding means that the protein was enriched with, or labelled near, the bait; the list need not be complete.

This test deals with mouse HMGB1 (mouse) (UniProt P63158). The test can be described thus: anti-CD24 immunoprecipitation of WT spleen lysates, EDTA elution, mass spectrometry (peptides of Table 1).

“mouse CD24 (from UniProt P24807 27-53) (receptor)”: the binding result is given as “binds”.
